38 targets from the supplement of paper PMC11006884 can be followed below.

Protein sequences, listed by entry. Tags and fused reporters are not part of them. Lines headed by an entry give the natural chain unless they say otherwise; changes in a name come on top.
UniProt P11586, whole entry, looked up: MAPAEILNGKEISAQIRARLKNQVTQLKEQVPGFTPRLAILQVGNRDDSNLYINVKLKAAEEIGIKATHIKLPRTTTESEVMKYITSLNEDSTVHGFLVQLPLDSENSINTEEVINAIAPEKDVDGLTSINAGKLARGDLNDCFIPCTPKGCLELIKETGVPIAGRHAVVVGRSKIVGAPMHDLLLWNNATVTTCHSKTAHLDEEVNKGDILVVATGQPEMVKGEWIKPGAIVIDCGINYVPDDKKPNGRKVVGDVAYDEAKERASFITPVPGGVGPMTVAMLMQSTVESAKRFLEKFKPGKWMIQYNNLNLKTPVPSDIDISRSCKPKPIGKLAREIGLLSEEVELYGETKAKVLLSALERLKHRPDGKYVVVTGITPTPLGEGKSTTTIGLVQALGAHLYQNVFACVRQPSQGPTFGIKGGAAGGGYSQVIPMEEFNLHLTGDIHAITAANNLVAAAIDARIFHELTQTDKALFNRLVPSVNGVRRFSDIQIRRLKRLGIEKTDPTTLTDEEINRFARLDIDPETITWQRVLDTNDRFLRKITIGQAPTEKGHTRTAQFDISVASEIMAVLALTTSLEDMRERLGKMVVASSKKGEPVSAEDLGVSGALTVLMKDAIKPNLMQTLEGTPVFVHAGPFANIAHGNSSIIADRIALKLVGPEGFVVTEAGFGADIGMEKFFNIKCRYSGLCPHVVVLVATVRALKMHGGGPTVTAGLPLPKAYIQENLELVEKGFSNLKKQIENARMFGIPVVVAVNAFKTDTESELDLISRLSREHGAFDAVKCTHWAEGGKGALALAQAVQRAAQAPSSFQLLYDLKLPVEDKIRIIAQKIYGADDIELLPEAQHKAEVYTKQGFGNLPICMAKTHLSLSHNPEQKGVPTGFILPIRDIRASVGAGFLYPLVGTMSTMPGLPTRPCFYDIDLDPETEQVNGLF
UniProt P09110: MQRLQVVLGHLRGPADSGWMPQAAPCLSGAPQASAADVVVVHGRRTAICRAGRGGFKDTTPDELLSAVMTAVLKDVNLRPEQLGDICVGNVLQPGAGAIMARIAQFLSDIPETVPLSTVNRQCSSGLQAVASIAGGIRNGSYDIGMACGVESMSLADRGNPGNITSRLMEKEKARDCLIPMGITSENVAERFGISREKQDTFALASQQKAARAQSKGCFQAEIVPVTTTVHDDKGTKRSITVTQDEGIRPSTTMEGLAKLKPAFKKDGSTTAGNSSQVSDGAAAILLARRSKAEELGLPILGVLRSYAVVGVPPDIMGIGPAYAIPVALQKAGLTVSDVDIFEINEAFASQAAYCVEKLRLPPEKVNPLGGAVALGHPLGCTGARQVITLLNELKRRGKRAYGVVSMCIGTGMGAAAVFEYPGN
UniProt P12814, whole entry, looked up: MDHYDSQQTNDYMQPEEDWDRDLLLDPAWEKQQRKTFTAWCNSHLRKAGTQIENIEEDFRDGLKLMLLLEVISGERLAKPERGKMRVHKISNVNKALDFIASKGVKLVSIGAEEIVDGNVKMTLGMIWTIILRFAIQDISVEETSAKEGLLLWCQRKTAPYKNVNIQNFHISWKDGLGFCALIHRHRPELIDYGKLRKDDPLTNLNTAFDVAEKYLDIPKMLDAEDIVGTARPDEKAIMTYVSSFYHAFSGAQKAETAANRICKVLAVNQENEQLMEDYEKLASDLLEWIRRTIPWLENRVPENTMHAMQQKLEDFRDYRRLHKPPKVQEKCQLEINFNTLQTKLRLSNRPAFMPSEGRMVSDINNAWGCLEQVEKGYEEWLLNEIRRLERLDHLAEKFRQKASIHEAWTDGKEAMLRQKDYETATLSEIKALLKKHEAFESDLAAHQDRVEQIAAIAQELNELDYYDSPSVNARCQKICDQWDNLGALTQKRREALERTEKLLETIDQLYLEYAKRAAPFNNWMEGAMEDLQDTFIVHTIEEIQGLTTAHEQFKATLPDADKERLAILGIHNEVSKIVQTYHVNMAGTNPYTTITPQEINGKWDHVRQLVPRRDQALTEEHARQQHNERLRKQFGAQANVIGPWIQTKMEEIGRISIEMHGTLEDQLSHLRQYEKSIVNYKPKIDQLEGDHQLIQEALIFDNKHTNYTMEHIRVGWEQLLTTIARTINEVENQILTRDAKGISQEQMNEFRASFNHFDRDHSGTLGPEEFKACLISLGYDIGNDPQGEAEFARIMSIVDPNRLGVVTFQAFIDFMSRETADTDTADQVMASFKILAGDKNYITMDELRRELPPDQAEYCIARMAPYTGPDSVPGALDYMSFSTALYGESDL
UniProt P13861, whole entry, looked up: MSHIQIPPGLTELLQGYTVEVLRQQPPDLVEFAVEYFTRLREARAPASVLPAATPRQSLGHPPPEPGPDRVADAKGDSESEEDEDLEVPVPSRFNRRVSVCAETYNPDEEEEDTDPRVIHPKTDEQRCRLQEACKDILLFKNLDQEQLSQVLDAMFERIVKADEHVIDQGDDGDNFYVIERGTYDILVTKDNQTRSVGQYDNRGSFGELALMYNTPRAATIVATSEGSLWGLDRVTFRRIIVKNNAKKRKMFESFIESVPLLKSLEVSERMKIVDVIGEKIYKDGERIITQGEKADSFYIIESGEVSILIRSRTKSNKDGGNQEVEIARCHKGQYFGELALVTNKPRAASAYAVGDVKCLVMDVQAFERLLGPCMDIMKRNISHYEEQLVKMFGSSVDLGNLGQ
UniProt P09382, whole entry, looked up: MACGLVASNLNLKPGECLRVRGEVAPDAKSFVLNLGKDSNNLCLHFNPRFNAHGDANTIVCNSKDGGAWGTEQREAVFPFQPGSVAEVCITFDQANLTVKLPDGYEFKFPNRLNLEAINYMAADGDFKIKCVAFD
UniProt P13807: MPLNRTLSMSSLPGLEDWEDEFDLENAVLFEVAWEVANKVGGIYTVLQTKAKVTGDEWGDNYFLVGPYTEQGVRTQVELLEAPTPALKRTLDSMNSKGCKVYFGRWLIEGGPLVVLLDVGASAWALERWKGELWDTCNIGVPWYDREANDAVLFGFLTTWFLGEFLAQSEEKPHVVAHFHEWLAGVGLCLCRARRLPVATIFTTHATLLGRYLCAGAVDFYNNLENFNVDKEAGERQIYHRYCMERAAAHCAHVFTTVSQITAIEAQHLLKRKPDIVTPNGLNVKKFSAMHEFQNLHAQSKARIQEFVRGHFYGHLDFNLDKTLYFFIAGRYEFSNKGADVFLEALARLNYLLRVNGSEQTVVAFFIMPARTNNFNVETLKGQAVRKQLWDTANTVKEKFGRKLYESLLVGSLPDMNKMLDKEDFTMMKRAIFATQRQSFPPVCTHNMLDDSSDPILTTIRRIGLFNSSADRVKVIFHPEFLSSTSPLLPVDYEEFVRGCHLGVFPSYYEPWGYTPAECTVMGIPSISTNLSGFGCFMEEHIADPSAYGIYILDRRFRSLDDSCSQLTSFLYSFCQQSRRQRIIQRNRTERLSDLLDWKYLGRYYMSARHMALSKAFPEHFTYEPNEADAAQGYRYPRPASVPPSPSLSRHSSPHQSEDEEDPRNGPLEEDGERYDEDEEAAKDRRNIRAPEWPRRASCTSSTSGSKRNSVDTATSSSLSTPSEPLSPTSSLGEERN
UniProt P08574: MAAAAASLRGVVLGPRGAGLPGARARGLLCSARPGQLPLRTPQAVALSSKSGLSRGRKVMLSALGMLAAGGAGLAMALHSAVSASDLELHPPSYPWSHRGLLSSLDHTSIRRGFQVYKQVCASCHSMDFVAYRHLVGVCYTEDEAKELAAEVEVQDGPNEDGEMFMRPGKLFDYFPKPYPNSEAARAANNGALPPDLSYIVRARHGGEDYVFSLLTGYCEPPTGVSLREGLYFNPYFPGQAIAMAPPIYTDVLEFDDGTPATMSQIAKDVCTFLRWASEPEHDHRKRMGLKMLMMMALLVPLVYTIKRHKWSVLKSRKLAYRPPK
UniProt P09874, whole entry, looked up: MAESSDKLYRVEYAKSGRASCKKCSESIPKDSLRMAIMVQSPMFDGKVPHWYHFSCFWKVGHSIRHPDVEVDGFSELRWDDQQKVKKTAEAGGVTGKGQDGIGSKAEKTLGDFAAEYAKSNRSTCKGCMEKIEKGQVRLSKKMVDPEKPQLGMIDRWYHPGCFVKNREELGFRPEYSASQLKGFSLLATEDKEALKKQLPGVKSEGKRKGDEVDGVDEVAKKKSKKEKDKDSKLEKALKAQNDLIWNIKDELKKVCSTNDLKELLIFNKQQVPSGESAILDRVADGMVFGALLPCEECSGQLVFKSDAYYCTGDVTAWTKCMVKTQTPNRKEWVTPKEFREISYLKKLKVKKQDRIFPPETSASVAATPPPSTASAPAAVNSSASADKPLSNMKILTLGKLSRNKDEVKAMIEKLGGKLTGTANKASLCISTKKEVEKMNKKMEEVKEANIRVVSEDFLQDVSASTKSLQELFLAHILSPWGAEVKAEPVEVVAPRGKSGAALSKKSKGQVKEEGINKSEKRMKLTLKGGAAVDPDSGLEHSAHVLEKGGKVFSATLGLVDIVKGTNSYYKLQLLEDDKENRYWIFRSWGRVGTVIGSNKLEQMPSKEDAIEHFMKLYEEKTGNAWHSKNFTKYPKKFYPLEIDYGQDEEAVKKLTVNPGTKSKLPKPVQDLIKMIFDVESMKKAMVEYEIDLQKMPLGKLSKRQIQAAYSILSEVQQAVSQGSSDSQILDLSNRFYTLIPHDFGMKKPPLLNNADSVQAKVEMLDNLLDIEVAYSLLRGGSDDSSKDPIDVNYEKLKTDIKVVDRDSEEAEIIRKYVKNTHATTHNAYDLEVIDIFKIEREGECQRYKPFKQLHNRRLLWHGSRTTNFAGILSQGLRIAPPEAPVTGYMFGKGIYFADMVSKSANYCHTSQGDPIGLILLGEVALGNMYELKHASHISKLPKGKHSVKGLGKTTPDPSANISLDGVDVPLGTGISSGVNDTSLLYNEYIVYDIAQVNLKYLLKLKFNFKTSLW
UniProt P11216: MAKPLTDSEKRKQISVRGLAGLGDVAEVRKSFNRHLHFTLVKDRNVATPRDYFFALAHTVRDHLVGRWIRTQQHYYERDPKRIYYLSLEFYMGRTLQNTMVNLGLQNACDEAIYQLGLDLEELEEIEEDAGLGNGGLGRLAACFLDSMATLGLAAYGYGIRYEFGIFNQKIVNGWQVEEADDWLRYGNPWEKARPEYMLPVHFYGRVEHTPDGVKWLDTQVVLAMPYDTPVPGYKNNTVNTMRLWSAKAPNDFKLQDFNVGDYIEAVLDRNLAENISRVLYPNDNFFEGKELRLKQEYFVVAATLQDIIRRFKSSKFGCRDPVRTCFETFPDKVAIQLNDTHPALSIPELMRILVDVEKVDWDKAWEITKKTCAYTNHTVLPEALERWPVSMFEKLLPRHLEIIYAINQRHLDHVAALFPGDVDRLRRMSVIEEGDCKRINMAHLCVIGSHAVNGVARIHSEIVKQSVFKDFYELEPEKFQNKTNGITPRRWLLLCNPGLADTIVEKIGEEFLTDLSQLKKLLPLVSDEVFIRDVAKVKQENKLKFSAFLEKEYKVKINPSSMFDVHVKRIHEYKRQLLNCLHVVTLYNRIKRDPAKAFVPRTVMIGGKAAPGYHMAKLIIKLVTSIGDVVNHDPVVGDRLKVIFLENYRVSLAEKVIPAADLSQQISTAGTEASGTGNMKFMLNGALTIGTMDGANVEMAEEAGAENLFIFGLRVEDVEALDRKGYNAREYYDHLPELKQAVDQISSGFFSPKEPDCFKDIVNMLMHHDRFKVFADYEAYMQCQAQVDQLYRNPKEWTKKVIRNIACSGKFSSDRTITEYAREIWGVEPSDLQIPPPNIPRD
UniProt P09234, whole entry, looked up: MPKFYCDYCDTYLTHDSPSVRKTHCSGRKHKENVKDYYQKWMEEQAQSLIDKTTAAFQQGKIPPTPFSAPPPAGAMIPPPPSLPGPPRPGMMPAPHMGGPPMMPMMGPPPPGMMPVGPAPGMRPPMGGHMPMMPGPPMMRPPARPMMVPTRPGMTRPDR
UniProt P08238, whole entry, looked up: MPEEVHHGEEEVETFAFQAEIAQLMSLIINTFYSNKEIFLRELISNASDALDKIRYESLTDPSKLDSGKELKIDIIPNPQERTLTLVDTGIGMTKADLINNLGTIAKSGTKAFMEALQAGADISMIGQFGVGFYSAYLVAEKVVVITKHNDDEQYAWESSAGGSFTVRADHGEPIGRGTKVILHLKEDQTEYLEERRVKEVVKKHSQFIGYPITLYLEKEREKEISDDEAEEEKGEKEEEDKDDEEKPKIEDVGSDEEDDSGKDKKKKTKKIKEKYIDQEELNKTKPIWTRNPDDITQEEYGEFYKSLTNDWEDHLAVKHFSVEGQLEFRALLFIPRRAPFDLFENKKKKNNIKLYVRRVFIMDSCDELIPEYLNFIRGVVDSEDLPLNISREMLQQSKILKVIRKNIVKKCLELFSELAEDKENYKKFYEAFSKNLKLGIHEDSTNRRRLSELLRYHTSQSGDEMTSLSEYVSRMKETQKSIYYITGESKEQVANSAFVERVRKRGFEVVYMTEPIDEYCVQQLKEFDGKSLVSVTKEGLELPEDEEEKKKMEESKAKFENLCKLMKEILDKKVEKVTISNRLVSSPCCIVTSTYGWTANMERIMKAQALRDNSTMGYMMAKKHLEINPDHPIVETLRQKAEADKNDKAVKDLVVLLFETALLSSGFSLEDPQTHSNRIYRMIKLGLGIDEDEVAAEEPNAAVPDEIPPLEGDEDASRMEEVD

What follows is the remainder of the data, with few or none of the targets with a hit. This is a noisy data set. The list shows a part of the results, in another mix than the full data.

Compound in the assay: COC(=O)/C=C/c1ccccc1 [methyl cinnamate]
In words: log2 ratio of iodoacetamide-alkyne labeling of the cysteine site, DMSO over compound (competition); higher = stronger covalent engagement of the cysteine by the compound, active = 1 or more. The note with it: 500 µM; treatment time 1 h; system: HEK293T cell lysate. The gist of the method:
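HEK293T lysate (2 mg/mL) was incubated with electrophile (500 µM) or vehicle for 1 h at ambient temperature and then with iodoacetamide alkyne for 1 h. Labelled proteins were clicked to sCIP-TMT reagents, pooled, digested, enriched on streptavidin and measured by Orbitrap Eclipse LC-MS/MS with FAIMS, with FragPipe quantification. The per-cysteine log2 competition ratio is mean control-channel reporter intensity over mean compound-channel reporter intensity. Across three replicates with duplicate channels, cysteines quantified in only one replicate were excluded.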
In the case of MTHFD1 C918 (UniProt P11586), the “log2 ratio of iodoacetamide-alkyne labeling” value (shortened to “log2 ratio”) was inactive: -0.0804.

As to HSP90AA1 C420 (UniProt P07900), the “log2 ratio” value was inactive: -0.0263.

As to DSP C110 (UniProt P15924), the “log2 ratio” value was inactive: -0.245.

As to RPS2 C182 (UniProt P15880), the “log2 ratio” value is inactive: 0.0673.

Regarding IMPDH2 C95 (UniProt P12268), the “log2 ratio” value was inactive: -0.236.

For PRKAR1A C39 (UniProt P10644), the “log2 ratio” value is inactive: 0.175.

With ACAA1 C218 (UniProt P09110), the “log2 ratio” value was inactive: 0.0191.

Consider MTHFD1 C152 (UniProt P11586), for which the “log2 ratio” value is inactive: -0.198.

For DSP C1052 (UniProt P15924), the “log2 ratio” value is inactive: 0.0999.

As to ACTN1 C480 (UniProt P12814), the “log2 ratio” value was inactive: 0.0672.

Consider EEF2 C557 (UniProt P13639), for which the “log2 ratio” value is inactive: -0.347.

RNH1 C30 (UniProt P13489): the “log2 ratio” value is inactive: 0.0196.

On to PRKAR2A C128 (UniProt P13861), for which the “log2 ratio” value is inactive: 0.088.

In the case of LGALS1 C17 (UniProt P09382), the “log2 ratio” value is inactive: 0.292.

Consider U2AF1L5 C163 (UniProt P0DN76), for which the “log2 ratio” value was inactive: -0.00308.

For the target TOP2A C455 (UniProt P11388), the “log2 ratio” value was inactive: 0.237.

Take RPS17 C35 (UniProt P08708): the “log2 ratio” value was inactive: 0.0883.

As to APEH C30 (UniProt P13798), the “log2 ratio” value was inactive: -0.0282.

GYS1 C564 (UniProt P13807): the “log2 ratio” value was inactive: 0.327.

Consider MTHFD1 C195 (UniProt P11586), for which the “log2 ratio” value is inactive: 0.00161.

For the target TOP2A C405 (UniProt P11388), the “log2 ratio” value was inactive: 0.0727.

As to PPP3CB C477 (UniProt P16298), the “log2 ratio” value is inactive: 0.3.

Take CAPN2 C405 (UniProt P17655): the “log2 ratio” value is inactive: -0.201.

With CYC1 C271 (UniProt P08574), the “log2 ratio” value was inactive: 0.228.

On to UniProt P0DN79_C15, for which the “log2 ratio” value was inactive: 0.247.

On to EPRS C692 (UniProt P07814), for which the “log2 ratio” value was inactive: 0.238.

Regarding EEF2 C591 (UniProt P13639), the “log2 ratio” value was inactive: 0.141.

On to PEPD C467 (UniProt P12955), for which the “log2 ratio” value is inactive: 0.0403.

Take PARP1 C162 (UniProt P09874): the “log2 ratio” value is inactive: 0.135.

With ACAA1 C123 (UniProt P09110), the “log2 ratio” value was inactive: 0.14.

JUP C511 (UniProt P14923): the “log2 ratio” value is inactive: 0.0844.

Turning to PYGB C496 (UniProt P11216), the “log2 ratio” value was inactive: 0.322.

For GSTP1 C102 (UniProt P09211), the “log2 ratio” value was inactive: 0.0823.

As for G6PD C158 (UniProt P11413), the “log2 ratio” value is inactive: 0.0395.

Take SNRPC C9 (UniProt P09234): the “log2 ratio” value is inactive: 0.101.

Take DBT C333 (UniProt P11182): the “log2 ratio” value is inactive: 0.0844.

Turning to HSP90AB1 C521 (UniProt P08238), the “log2 ratio” value is inactive: 0.218.

With PARP1 C908 (UniProt P09874), the “log2 ratio” value was inactive: -0.249.
